Test results reported in article PMC10680230.
These are yes or no findings as the source states them, for the method shown. Binding seen in cells or lysates may run through a third protein. A yes stands for co-enrichment or nearness to the bait. Other partners may have been found. No binding means not detected with the bait.

Chains of the proteins cited; added tags and fusions are not shown.
UniProt P62258: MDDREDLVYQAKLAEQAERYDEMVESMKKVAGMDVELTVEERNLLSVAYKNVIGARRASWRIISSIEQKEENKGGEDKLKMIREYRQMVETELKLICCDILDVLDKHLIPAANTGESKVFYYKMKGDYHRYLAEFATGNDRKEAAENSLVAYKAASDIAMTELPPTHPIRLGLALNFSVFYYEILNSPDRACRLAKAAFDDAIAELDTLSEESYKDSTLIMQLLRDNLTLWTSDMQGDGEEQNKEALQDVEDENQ

Target: T1, Thyroid hormone receptor-interacting protein 13 (TRIP13) (human (endogenous in H929)) (UniProt Q15645)
T1 sequence: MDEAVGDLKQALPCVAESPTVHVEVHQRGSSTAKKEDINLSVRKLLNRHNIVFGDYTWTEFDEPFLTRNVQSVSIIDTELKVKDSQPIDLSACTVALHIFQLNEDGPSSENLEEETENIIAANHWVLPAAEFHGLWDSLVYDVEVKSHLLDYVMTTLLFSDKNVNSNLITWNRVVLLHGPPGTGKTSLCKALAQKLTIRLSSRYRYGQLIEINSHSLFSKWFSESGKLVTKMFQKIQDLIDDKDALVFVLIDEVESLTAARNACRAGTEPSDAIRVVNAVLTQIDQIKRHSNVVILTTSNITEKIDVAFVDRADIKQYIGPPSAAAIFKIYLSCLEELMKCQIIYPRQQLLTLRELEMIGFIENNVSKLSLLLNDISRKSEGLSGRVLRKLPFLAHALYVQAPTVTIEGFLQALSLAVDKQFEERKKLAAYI
Experiment: affinity purification with mass spectrometry; liquid chromatography-tandem mass spectrometry to identify potential TRIP13-interacting proteins; cells, capture of TRIP13 and conditions not told

Substance | binding
MEK | no binding
RAF | no binding
ERK | no binding
YWHAE (from UniProt P62258 1-255) | binds
